Experimental data as given in PubChem BioAssay AID504467 (National Center for Advancing Translational Sciences (NCATS), 2011).
Out of some 330,000 compounds screened, about 7,700 (2.3%) were called active. Inconclusive results, whose numbers are uncertain, are shown with a selection of clear calls. Calls come from the whole dose curve; as a rule, active = well fitted inhibition curve with a large enough effect; inconclusive = small, poorly fitted or top-dose-only effect, or effect the other way; inactive = flat fitted curve, though single readings scatter. Potencies beside an inconclusive call are fits to weak or partial responses and may not hold up.

assay: qHTS screen for small molecules that inhibit ELG1-dependent DNA repair in human embryonic kidney (HEK293T) cells expressing luciferase-tagged ELG1; details: HEK293T ELG1-luciferase reporter, luminescence, 16 h, DNA damage induced by 5-fluorouridine; series mostly up to 46.1 µM; note: nearly all actives have a fitted effect of over 55% in size
In short: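 Reporter activity after DNA damage by 5-fluorouridine is monitored. Compound-treated cells incubate 16 hr at 37 °C, then ONE-Glo is added for 30 min before luminescence reading.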
Potency is the fitted concentration of half-maximal effect.

Row | Structure (SMILES) | Potency
1 | COc1cc(NC(=O)c2c(F)cccc2F)nc(OC)n1 | inconclusive: 17.8 µM [activator, single point]
2 | CCOc1ccc(NCc2nnc(SCc3ccccc3Cl)n2-c2ccccc2)cc1 | inconclusive: 0.562 µM [inhibitor, full curve, poor fit]
3 | CC(C)(C)OC(=O)[C@H](Cc1ccccc1)NC(=O)c1nc[nH]c1C(=O)N1CCN(C(=O)OC(C)(C)C)CC1 | inconclusive: 2.91 µM [activator, partial curve, poor fit]
4 | Nc1ccc(Oc2ncccn2)cc1 | inactive
5 | Cc1ccc(C(=O)c2c3ccc([N+](=O)[O-])cc3[n+]([O-])n2CCC(N)=O)cc1 | inconclusive: 0.461 µM [inhibitor, partial curve]
6 | O=[N+]([O-])c1ccc2c(c1)nc(CO)n2Cc1ccccc1 | inactive
7 | O=c1cccccc1NN=C1CCCCCC1 | inconclusive: 8.2 µM [activator, partial curve]
8 | CCN(CC)C(=O)c1[nH]cnc1C(=O)Nc1cccc(Cl)c1 | inactive
9 | Cc1nc(C)c(-c2ccc(SCC(=O)Nc3cccc(Cl)c3C)nn2)s1 | inconclusive: 29.1 µM [inhibitor, single point]
10 | COC(=O)c1c(NC(=O)c2ccccc2N(C)S(=O)(=O)c2ccccc2)sc2c1CCCC2 | inconclusive: 3.66 µM [inhibitor, partial curve, poor fit]
11 | O=C(CN1C(=O)NC2(CCCC2)C1=O)Nc1cc(C(F)(F)F)ccc1N1CCOCC1 | inactive
12 | CCO[C@@H]1OC(C(=O)N2CCN(Cc3ccc4c(c3)OCO4)CC2)=C[C@H](C2CC2)[C@H]1CCCO | inactive
13 | O=C(Nc1ccc(S(=O)(=O)N2CCCCC2)cc1)C1CCCN(C(=O)c2ccc(Cl)cc2)C1 (centres undefined) | inconclusive: 5.17 µM [inhibitor, partial curve, poor fit]
14 | O=C(c1ccc([N+](=O)[O-])s1)N1CCN(c2cccc(Cl)c2)CC1 | inconclusive: 29.1 µM [inhibitor, single point]
15 | COc1ccccc1NC(=O)c1cc(C(=O)Nc2ccccc2OC)cc(N2C(=O)CCC2=O)c1 | inconclusive: 29.1 µM [activator, single point]
16 | CCC(=O)NC(=S)N1CCN(c2ccc([N+](=O)[O-])cc2Cl)CC1 | inconclusive: 29.1 µM [inhibitor, single point]
17 | N#CCCn1cc(C(=O)Nc2ccccc2Br)c(-c2cccs2)n1 | inactive
18 | Cc1ccc2nc(-c3cccc(NC(=O)c4ccco4)c3)[nH]c2c1 | inconclusive: 2.59 µM [activator, partial curve, poor fit]
19 | CSc1nnc2c(n1)OC(c1ccccn1)N(C(C)=O)c1ccccc1-2 (centres undefined) | inactive
20 | O=C(O)C1CC=CCC1C(=O)Nc1ccccc1Cl (centres undefined) | inconclusive: 20.6 µM [activator, partial curve, poor fit]
21 | O=C(CN(Cc1ccccc1)C(=O)CSc1nnc(COc2ccccc2)o1)NC1CCCC1 | inconclusive: 25.9 µM [inhibitor, single point]
22 | CC(NC(=O)Nc1ccc(F)cc1F)c1ccncc1 (centres undefined) | inactive

Row | Structure (SMILES) | Potency
23 | O=C(COc1ccc2ccc(=O)oc2c1)Nc1ccc(N2CCOCC2)cc1 | inconclusive: 20.6 µM [activator, partial curve, poor fit]
24 | CCn1cnc2c1c(=O)n(CC(=O)OC)c(=O)n2Cc1ccccc1 | inactive
25 | CC(Oc1ccc(Cl)cc1Cl)c1nc(-c2ccccn2)no1 (centres undefined) | inconclusive: 20.6 µM [activator, partial curve]
26 | COc1ccc(/C=N/NC(=O)c2cccc([N+](=O)[O-])c2)cc1OS(=O)(=O)c1ccc(C)cc1 | inconclusive: 20.6 µM [inhibitor, single point]
27 | COC(=O)CSc1nc2cc(OC)ccc2cc1C#N | inconclusive: 0.82 µM [activator, full curve]
28 | COc1ccc(Cl)cc1NC(=O)COC(=O)c1cc(NS(=O)(=O)c2cccs2)ccc1O | inconclusive: 32.6 µM [inhibitor, single point]
29 | COc1ccc(N2Cc3ccccc3C2=O)cc1 | inconclusive: 2.06 µM [activator, full curve]
30 | COc1ccc(N2C(=O)C3CC(C)=C(C)CC3C2=O)c(OC)c1 (centres undefined) | inactive
31 | CCOc1ccc(/C=C2\SC(=S)N(CCC(=O)Nc3cccc(C(=O)O)c3)C2=O)cc1 | inactive
32 | COc1ccc(OC)c(S(=O)(=O)N2CCN(c3ncccn3)CC2)c1 | inconclusive: 14.6 µM [inhibitor, partial curve, poor fit]
33 | COC(=O)CSc1ncnc2c1sc1nc3c(cc12)COC(C)(C)C3 | inactive
34 | COc1ccc(N2C(=O)C(C)C(Cc3ccc(C)cc3)C2=O)cc1 (centres undefined) | inactive
35 | COc1cccc(N2C(=O)C3C(C2=O)C3(c2ccccc2)c2ccccc2)c1 (centres undefined) | inconclusive: 25.9 µM [inhibitor, single point]
36 | NC(=O)C1=C[C@H](c2ccc(Br)cc2)C[C@H](OCc2ccc(CO)cc2)O1 | inconclusive: 20.6 µM [activator, partial curve]
37 | O=c1oc2ccccc2c(Nc2cccc3ccccc23)c1[N+](=O)[O-] | inactive
38 | CCOc1ccc(NC(=O)c2cc3c(C)nc4ccccc4c3o2)cc1 | active: 8.2 µM
39 | CCc1nnc(NC(=O)CSc2ccc(-c3cccs3)nn2)s1 | inactive
40 | O=C(Oc1ccc(/C=N/O)cc1)c1ccccc1Cl | inconclusive: 23.1 µM [activator, single point]
41 | Cc1cc(N2CCOCC2)nc2ccc(NC(=O)CCC(=O)N3CCN(c4ccc(F)cc4)CC3)cc12 | inconclusive: 25.9 µM [inhibitor, single point]
42 | CCOc1ccc(N(CC)C(=O)c2cn(CC)c(=O)c3cc(OC)c(OC)cc23)cc1 | inconclusive: 23.1 µM [inhibitor, single point]
43 | CC(C)C(c1nnnn1C1CCCC1)N1c2ccccc2CC1C (centres undefined) | inactive
44 | CC1(c2ccccc2)NC(=O)N(CC(=O)Nc2ccc(N3CCOCC3)cc2N2CCOCC2)C1=O (centres undefined) | inconclusive: 0.58 µM [inhibitor, single point]

In the list so far, two contain a furan ring, fused or not:
Row | Structure (SMILES) | Potency
18 | Cc1ccc2nc(-c3cccc(NC(=O)c4ccco4)c3)[nH]c2c1 | inconclusive: 2.59 µM [activator, partial curve, poor fit]
38 | CCOc1ccc(NC(=O)c2cc3c(C)nc4ccccc4c3o2)cc1 | active: 8.2 µM
